{"source": "PubChem BioAssay AID248", "about": "(DTP/NCI, 2004)", "test_system": "L1210 leukemia ip in BDF1 mice, survival T/C", "assay": "NCI In Vivo Anticancer Drug Screen. Data for tumor model L1210 Leukemia (intraperitoneal) in B6D2F1 (BDF1) mice", "conditions": "T/C endpoint: mean survival time, higher T/C = longer survival", "key": {"[1]": {"conditions": "dose: 150.0 mg/kg/injection, schedule: Q01DX001 (ip), vehicle: saline"}, "[2]": {"conditions": "dose: 300.0 mg/kg/injection, schedule: Q01DX001 (ip), vehicle: saline"}, "[3]": {"conditions": "dose: 200.0 mg/kg/injection, schedule: Q04DX003 (ip), vehicle: saline"}, "[4]": {"conditions": "dose: 400.0 mg/kg/injection, schedule: Q04DX003 (ip), vehicle: saline"}}, "note": "The list is a part of this screen's results and no random one: it gathers tests that were run many times, whatever their T/C, doses with no T/C, and many T/C values between a quarter and a half above the control. Further doses and runs are listed elsewhere. T/C is the treated group as % of the vehicle group. Some doses have a count of surviving animals in place of a T/C: the source holds a T/C of zero for them, seemingly a mark for toxic or unscored doses. Some survivor counts are full or nearly so, which does not show that the dose was tolerated: survival well below the control is almost never listed, so the zero probably covers shortened survival too. Counts of survivors are from the toxicity check (mostly the fifth day) where no day follows; animals may have died later. Schedules are NCI's codes, read here as Q, the interval in days (D) or hours (H), X, the number of doses. Some entries were tested several times; the results are listed from low to high. Some schedules carry Z or #; the key to these is not given. For survival time, this PubChem deposit counts one and a half times the control or more as active, and values a quarter to a half above the control carry no call in these data; other NCI protocols may use other cut-offs. Some T/C values carry the count of animals alive at the toxicity check (mostly the fifth day); where none is given, no animal had died by that day.", "data": [{"smiles": "OC1C2CCC(C2)[CH]1[Hg][Cl]", "note": "(centres undefined)", "values": [{"measurement": "survivor count", "setting": "dose: 30.0 mg/kg/injection, schedule: Q01DX001 (ip), vehicle: carboxymethylcellulose (CMC)", "result": "2 of 6"}, {"measurement": "survivor count", "setting": "dose: 60.0 mg/kg/injection, schedule: Q01DX001 (ip), vehicle: carboxymethylcellulose (CMC)", "result": "0 of 6"}]}, {"smiles": "Cc1ccccc1[P+](Cc1ccccc1)(c1ccccc1)c1ccccc1C", "values": [{"measurement": "survivor count", "setting": "dose: 30.0 mg/kg/injection, schedule: Q01DX001 (ip), vehicle: saline", "result": "3 of 6"}, {"measurement": "survivor count", "setting": "dose: 60.0 mg/kg/injection, schedule: Q01DX001 (ip), vehicle: saline", "result": "1 of 6"}, {"measurement": "survivor count", "setting": "dose: 75.0 mg/kg/injection, schedule: Q01DX001 (ip), vehicle: saline", "result": "0 of 6"}, {"measurement": "survivor count", "setting": "[1]", "result": "0 of 6"}, {"measurement": "survivor count", "setting": "[2]", "result": "0 of 6"}]}, {"smiles": "Cc1cnc(SCc2ccc(Cl)cc2)nc1N(Cc1ccccc1)Cc1ccccc1", "values": [{"measurement": "survivor count", "setting": "dose: 200.0 mg/kg/injection, schedule: Q01DX Z (ip), vehicle: methylcellulose (MC)", "result": "5 of 6"}]}, {"smiles": "OCCN1CCN(CC/C=C2\\c3ccccc3COc3ccc(Cl)cc32)CC1", "values": [{"measurement": "survivor count", "setting": "dose: 6.25 mg/kg/injection, schedule: Q03HX024 (ip), vehicle: saline", "result": "3 of 6"}, {"measurement": "survivor count", "setting": "dose: 12.5 mg/kg/injection, schedule: Q01DX009 (ip), vehicle: saline", "result": "5 of 6"}, {"measurement": "survivor count", "setting": "dose: 12.5 mg/kg/injection, schedule: Q03HX024 (ip), vehicle: saline", "result": "0 of 6"}, {"measurement": "survivor count", "setting": "dose: 25.0 mg/kg/injection, schedule: Q01DX009 (ip), vehicle: saline", "result": "2 of 6 and 6 of 6"}, {"measurement": "T/C", "setting": "dose: 25.0 mg/kg/injection, schedule: Q04DX003 (ip), vehicle: saline", "result": "128 % of control [3 of 4 alive]"}, {"measurement": "survivor count", "setting": "dose: 32.0 mg/kg/injection, schedule: Q01DX009 (ip), vehicle: saline", "result": "6 of 6"}, {"measurement": "survivor count", "setting": "dose: 50.0 mg/kg/injection, schedule: Q01DX009 (ip), vehicle: saline", "result": "2 of 6 and 3 of 6"}, {"measurement": "T/C", "setting": "dose: 50.0 mg/kg/injection, schedule: Q04DX003 (ip), vehicle: saline", "result": "128 [5 of 6 alive] and 132 % of control"}, {"measurement": "survivor count", "setting": "dose: 100.0 mg/kg/injection, schedule: Q04DX003 (ip), vehicle: saline", "result": "0 of 4 and 4 of 6"}, {"measurement": "survivor count", "setting": "[1]", "result": "2 of 6"}, {"measurement": "survivor count", "setting": "[3]", "result": "0 of 4"}, {"measurement": "survivor count", "setting": "[2]", "result": "0 of 6"}, {"measurement": "survivor count", "setting": "[4]", "result": "0 of 4"}]}, {"smiles": "O=P1(N(CCCl)CCCl)NC(OO)CCO1", "note": "(centres undefined)", "values": [{"measurement": "survivor count", "setting": "dose: 300.0 mg/kg/injection, schedule: Q01DX001 (ip), vehicle: DMSO", "result": "4 of 10"}, {"measurement": "survivor count", "setting": "dose: 400.0 mg/kg/injection, schedule: Q01DX001 (ip), vehicle: DMSO", "result": "2 of 10"}]}, {"smiles": "COc1cc2c(cc1OC)C(C)=[N+](C)CC2", "values": [{"measurement": "survivor count", "setting": "dose: 100.0 mg/kg/injection, schedule: Q04DX003 (ip), vehicle: acetone", "result": "6 of 6"}, {"measurement": "survivor count", "setting": "dose: 200.0 mg/kg/injection, schedule: Q04DX003 (ip), vehicle: acetone", "result": "0 of 6"}, {"measurement": "survivor count", "setting": "dose: 400.0 mg/kg/injection, schedule: Q04DX003 (ip), vehicle: acetone", "result": "0 of 6"}]}, {"smiles": "CC(=O)NC1CCC(CC2CCCCC2)CC1", "note": "(centres undefined)", "values": [{"measurement": "survivor count", "setting": "dose: 400.0 mg/kg/injection, schedule: Q01DX009 (ip), vehicle: Klucel (hydroxypropylcellulose) (HPC)", "result": "0 of 6"}]}, {"smiles": "CC1(C)N=C(N)N=C(N)N1c1cccc(C(=O)Nc2ccc(S(=O)(=O)F)cc2)c1", "values": [{"measurement": "survivor count", "setting": "dose: 100.0 mg/kg/injection, schedule: Q01DX009 (ip), vehicle: saline", "result": "2 of 6"}, {"measurement": "survivor count", "setting": "dose: 500.0 mg/kg/injection, schedule: Q01DX009 (ip), vehicle: saline", "result": "0 of 6"}]}, {"smiles": "Cc1ccc(NC(=O)Oc2ccc([N+](=O)[O-])cc2)cc1S(=O)(=O)F", "values": [{"measurement": "survivor count", "setting": "dose: 400.0 mg/kg/injection, schedule: Q01DX009 (ip), vehicle: saline with Tween-80", "result": "0 of 3 and 4 of 6"}, {"measurement": "survivor count", "setting": "dose: 400.0 mg/kg/injection, schedule: Q04DX003 (ip), vehicle: saline with Tween-80", "result": "0 of 3"}]}, {"smiles": "COc1ccc(OC)c(CCN)c1", "values": [{"measurement": "survivor count", "setting": "[3]", "result": "0 of 6"}, {"measurement": "survivor count", "setting": "[4]", "result": "0 of 6"}]}, {"smiles": "CC(O)CNC(=S)c1ccccc1", "note": "(centres undefined)", "values": [{"measurement": "survivor count", "setting": "dose: 400.0 mg/kg/injection, schedule: Q04DX002 (ip), vehicle: saline with Tween-80", "result": "1 of 3"}]}]}
